The source of these data is paper PMC5943563.

Results are given in words; binding and its absence hold for the method and conditions named. Where a sequence is shown, tags or fusion partners need not be part of it.

This assay concerns the target T1, HISTONE …9 fused with the DNA-binding domain of GAL4 (Arabidopsis thaliana), Q8H0W2.
T1 chain: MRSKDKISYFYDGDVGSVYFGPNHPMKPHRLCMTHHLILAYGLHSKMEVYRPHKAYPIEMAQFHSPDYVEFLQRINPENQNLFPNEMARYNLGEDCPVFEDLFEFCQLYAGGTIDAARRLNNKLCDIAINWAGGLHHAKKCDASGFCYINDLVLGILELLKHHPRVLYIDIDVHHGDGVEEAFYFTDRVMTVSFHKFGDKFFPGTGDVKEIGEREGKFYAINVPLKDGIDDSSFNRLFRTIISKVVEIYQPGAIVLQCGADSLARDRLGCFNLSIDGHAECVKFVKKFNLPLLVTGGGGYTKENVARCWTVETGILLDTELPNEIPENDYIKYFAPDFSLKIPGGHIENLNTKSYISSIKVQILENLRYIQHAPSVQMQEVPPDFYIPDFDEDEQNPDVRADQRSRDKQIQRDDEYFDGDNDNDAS
The assay can be described thus: two-hybrid; ProQuest Two-Hybrid System (pDEST22, pDEST32); growth on synthetic complete medium lacking leucine, tryptophan and histidine with 20 mM 3-amino-1,2-4-triazole. The following applies: remark: other sources report otherwise.

B1: HIGH EXPRESSION OF OSMOTICALLY RESPONSIVE GENES15 fused with the activation domain of GAL4, Q9FN19 1-613 (protein)
chain: MSSLTSVELNFLVFRYLQESGFTHAAFTLGYEAGINKSNIDGNMVPPGALIKFVQKGLQYMEMEANLSNSEVDIDEDFSFFQPLDLISKDVKELQDMLREKKRKERDMEKERDRSKENDKGVEREHEGDRNRAKEKDRHEKQKEREREREKLEREKEREREKIEREKEREREKMEREIFEREKDRLKLEKEREIEREREREKIEREKSHEKQLGDADREMVIDQTDKEIAGDGSTGAEPMDIVMTPTSQTSHIPNSDVRILEGHTSEVCACAWSPSASLLASGSGDATARIWSIPEGSFKAVHTGRNINALILKHAKGKSNEKSKDVTTLDWNGEGTLLATGSCDGQARIWTLNGELISTLSKHKGPIFSLKWNKKGDYLLTGSVDRTAVVWDVKAEEWKQQFEFHSGPTLDVDWRNNVSFATSSTDSMIYLCKIGETRPAKTFTGHQGEVNCVKWDPTGSLLASCSDDSTAKIWNIKQSTFVHDLREHTKEIYTIRWSPTGPGTNNPNKQLTLASASFDSTVKLWDAELGKMLCSFNGHREPVYSLAFSPNGEYIASGSLDKSIHIWSIKEGKIVKTYTGNGGIFEVCWNKEGNKIAACFADNSVCVLDFRM
As for B1, the binding result is given as “no binding”.
